Record: PubChem BioAssay AID1159584 (Peter MacCallum Cancer Centre, 2016)

Aim: 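Genes that CDH1-null MCF10A cells selectively depend on to survive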 (primary screen)
Cell system: human MCF10A breast epithelial cells, parental and CDH1-null
Reagents: siRNA against human genes
Detection: 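Cell viability by CellTiter-Glo ATP luminescence, each line scaled to the mean of mock wells across plates, then CDH1-null over parental ratio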
Direction: CDH1-null / parental viability ratio: higher = CDH1-null cells survive relatively better than parental; CDH1-null viability vs mock: higher = more viable CDH1-null cells
The deposit covers about 18,000 reagents; below is an unselected part. The numbers tell different reagents against one gene apart. Not all columns of the deposit are shown. Not given: the amount of reagent, the time to read-out.

SNTG2 (GeneID 54221): CDH1-null / parental viability ratio = 1.05; CDH1-null viability vs mock (fraction of mock) = 0.88
NOSIP (GeneID 51070): CDH1-null / parental viability ratio = 1.12; CDH1-null viability vs mock (fraction of mock) = 0.65
PLAUR (GeneID 5329): CDH1-null / parental viability ratio = 0.79; CDH1-null viability vs mock (fraction of mock) = 0.69
IDS (GeneID 3423): CDH1-null / parental viability ratio = 1.06; CDH1-null viability vs mock (fraction of mock) = 1.06
DEFB108B (GeneID 245911): CDH1-null / parental viability ratio = 1.21; CDH1-null viability vs mock (fraction of mock) = 0.81
RTL8A (GeneID 26071): CDH1-null / parental viability ratio = 1.84; CDH1-null viability vs mock (fraction of mock) = 0.46
PSMG3 (GeneID 84262): CDH1-null / parental viability ratio = 0.92; CDH1-null viability vs mock (fraction of mock) = 0.92
FSIP2 (GeneID 401024) #1: CDH1-null / parental viability ratio = 1.1; CDH1-null viability vs mock (fraction of mock) = 0.92
FSIP2 (GeneID 401024) #2: CDH1-null / parental viability ratio = 1.24; CDH1-null viability vs mock (fraction of mock) = 0.62
SLC24A2 (GeneID 25769): CDH1-null / parental viability ratio = 1.02; CDH1-null viability vs mock (fraction of mock) = 0.9
DST (GeneID 667): CDH1-null / parental viability ratio = 1.24; CDH1-null viability vs mock (fraction of mock) = 1.04
TSPYL6 (GeneID 388951): CDH1-null / parental viability ratio = 0.9; CDH1-null viability vs mock (fraction of mock) = 0.72
ANAPC2 (GeneID 29882): CDH1-null / parental viability ratio = 1.1; CDH1-null viability vs mock (fraction of mock) = 0.99
P2RY13 (GeneID 53829): CDH1-null / parental viability ratio = 0.7; CDH1-null viability vs mock (fraction of mock) = 0.74
CDH8 (GeneID 1006): CDH1-null / parental viability ratio = 0.97; CDH1-null viability vs mock (fraction of mock) = 0.64
IQCH (GeneID 64799): CDH1-null / parental viability ratio = 0.76; CDH1-null viability vs mock (fraction of mock) = 0.84
HPN (GeneID 3249): CDH1-null / parental viability ratio = 1.03; CDH1-null viability vs mock (fraction of mock) = 0.7
KIAA0232 (GeneID 9778): CDH1-null / parental viability ratio = 1.37; CDH1-null viability vs mock (fraction of mock) = 0.52
COBL (GeneID 23242): CDH1-null / parental viability ratio = 1.12; CDH1-null viability vs mock (fraction of mock) = 0.92
SLC52A2 (GeneID 79581): CDH1-null / parental viability ratio = 0.88; CDH1-null viability vs mock (fraction of mock) = 0.76
DEDD2 (GeneID 162989): CDH1-null / parental viability ratio = 0.86; CDH1-null viability vs mock (fraction of mock) = 0.6

Copied from the entries so far, 6 entries:
SLC24A2 (GeneID 25769): CDH1-null / parental viability ratio = 1.02; CDH1-null viability vs mock (fraction of mock) = 0.9
DST (GeneID 667): CDH1-null / parental viability ratio = 1.24; CDH1-null viability vs mock (fraction of mock) = 1.04
TSPYL6 (GeneID 388951): CDH1-null / parental viability ratio = 0.9; CDH1-null viability vs mock (fraction of mock) = 0.72
ANAPC2 (GeneID 29882): CDH1-null / parental viability ratio = 1.1; CDH1-null viability vs mock (fraction of mock) = 0.99
P2RY13 (GeneID 53829): CDH1-null / parental viability ratio = 0.7; CDH1-null viability vs mock (fraction of mock) = 0.74
CDH8 (GeneID 1006): CDH1-null / parental viability ratio = 0.97; CDH1-null viability vs mock (fraction of mock) = 0.64

The list goes on:
SORD (GeneID 6652): CDH1-null / parental viability ratio = 0.85; CDH1-null viability vs mock (fraction of mock) = 0.82
PLSCR1 (GeneID 5359): CDH1-null / parental viability ratio = 0.93; CDH1-null viability vs mock (fraction of mock) = 0.76
ZNF829 (GeneID 374899): CDH1-null / parental viability ratio = 1.06; CDH1-null viability vs mock (fraction of mock) = 0.7
TPMT (GeneID 7172): CDH1-null / parental viability ratio = 0.96; CDH1-null viability vs mock (fraction of mock) = 0.94
FLNA (GeneID 2316): CDH1-null / parental viability ratio = 1.1; CDH1-null viability vs mock (fraction of mock) = 0.68
DSG3 (GeneID 1830): CDH1-null / parental viability ratio = 1.27; CDH1-null viability vs mock (fraction of mock) = 1.27
CAMSAP1 (GeneID 157922): CDH1-null / parental viability ratio = 1.02; CDH1-null viability vs mock (fraction of mock) = 0.92
POLD3 (GeneID 10714): CDH1-null / parental viability ratio = 0.83; CDH1-null viability vs mock (fraction of mock) = 0.68
CIRSR (GeneID 9541): CDH1-null / parental viability ratio = 1.33; CDH1-null viability vs mock (fraction of mock) = 0.64
ATAD2 (GeneID 29028): CDH1-null / parental viability ratio = 0.99; CDH1-null viability vs mock (fraction of mock) = 0.97
H2AX (GeneID 3014): CDH1-null / parental viability ratio = 0.74; CDH1-null viability vs mock (fraction of mock) = 0.34
ASB6 (GeneID 140459): CDH1-null / parental viability ratio = 1.19; CDH1-null viability vs mock (fraction of mock) = 0.76
TAC4 (GeneID 255061): CDH1-null / parental viability ratio = 0.98; CDH1-null viability vs mock (fraction of mock) = 1.08
OR4K17 (GeneID 390436): CDH1-null / parental viability ratio = 1.16; CDH1-null viability vs mock (fraction of mock) = 1.04
